Measured values: patent US20250361288A1 (Gilead, published 2025)
Positions count from the first letter of the chain named. Results are given in words; binding and its absence hold for the method and conditions named. Some entries that bind do so weakly or less than the wild type. Values belong to the molecule of their own block, whether it stands above or below them.

The chains behind the UniProt entries cited, without tags or fusion partners. Residues count along the entry.
UniProt P36941, residues 31-227: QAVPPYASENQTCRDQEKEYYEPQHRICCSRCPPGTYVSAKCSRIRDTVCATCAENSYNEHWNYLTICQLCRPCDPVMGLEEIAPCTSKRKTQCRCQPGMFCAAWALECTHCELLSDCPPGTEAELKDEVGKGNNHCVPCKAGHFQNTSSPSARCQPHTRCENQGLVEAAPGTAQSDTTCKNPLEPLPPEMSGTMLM
UniProt P50284, residues 31-223: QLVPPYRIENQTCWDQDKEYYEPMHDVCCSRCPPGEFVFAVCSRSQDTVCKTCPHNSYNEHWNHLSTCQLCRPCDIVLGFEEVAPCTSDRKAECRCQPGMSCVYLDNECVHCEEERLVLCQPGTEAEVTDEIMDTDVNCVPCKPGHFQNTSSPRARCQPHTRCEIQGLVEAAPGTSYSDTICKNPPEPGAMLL
UniProt Q80WM9, residues 39-206: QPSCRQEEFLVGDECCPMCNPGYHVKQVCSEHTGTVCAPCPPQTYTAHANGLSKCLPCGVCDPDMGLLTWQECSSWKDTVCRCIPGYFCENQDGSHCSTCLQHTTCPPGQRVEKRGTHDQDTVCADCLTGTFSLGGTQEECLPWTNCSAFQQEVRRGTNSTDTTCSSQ

Columns and labels:
[1] = molecular target: human LTβR extracellular domain fused with an Fc fragment at the C-terminus (human) (UniProt P36941); assay: phage ELISA
[2] = molecular target: mouse LTβR extracellular domain fused with an Fc fragment at the C-terminus (mouse) (UniProt P50284); assay: phage ELISA
[3] = molecular target: mouse HVEM extracellular domain fused with an Fc fragment at the C-terminus (mouse) (UniProt Q80WM9); assay: phage ELISA
[4] = molecular target: human LTβR extracellular domain fused with an Fc fragment at the C-terminus (human) (UniProt P36941); assay: ELISA on coated target-Fc
[5] = molecular target: mouse LTβR extracellular domain fused with an Fc fragment at the C-terminus (mouse) (UniProt P50284); assay: ELISA (FIG. 7)

binding [1]: binds
binding [2]: binds
Molecule: LIGHT-84 (from UniProt O43557 74-240) (ligand)

binding [1]: binds
binding [2]: binds
binding [3]: binds
Molecule: LIGHT-12 (from UniProt O43557 74-240) (ligand)

B1: LIGHT-14 (ligand)
chain: DGPAGSWEQLIQERRSHEVNPAAHLTGANSSLTGSGGPLLWESQLGLAFLRGLSYHDGALVVTKAGYYYIYSKVQLGGVGCPLGQASTITHGMYKRTPRYPEELELLVSQQSPCGRATSSSRVWWDSSFLGGVVHLEAGEKVVVRVLDERLVRLRDGTRSYFGAFMV
notes: Soluble protein carries an N-terminal His tag
binding [1]: binds
binding [2]: binds
binding [3]: binds
binding [4]: binds

B2: LIGHT-89 (ligand)
chain: B1 chain with A22T, S43T, G77R, Q85L, S87R, M93L, P101L, W125Q, R155L
notes: as for B1
binding [1]: binds
binding [2]: binds
binding [5]: binds

B3: LIGHT-18 (ligand)
chain: B1 chain with S43T, V62I, M93L, K141E, E149K
notes: as for B1
binding [1]: binds
binding [2]: binds
binding [3]: binds

B4: LIGHT-19 (ligand)
chain: B1 chain with S43T, T63S, L83P, Q85L, S87G, M93L, L147M
notes: as for B1
binding [1]: binds
binding [2]: binds
binding [3]: binds
binding [4]: binds
